The list shows only some results of the screen, not a fair sample: it is rich in T/C values a quarter to a half above the control, in often repeated tests (any T/C) and in doses without a T/C. Other doses and runs of a compound stand elsewhere. T/C is the treated group as % of the vehicle group. Some entries give survivors of the animals treated and no T/C: the source files T/C as zero there, which appears to mark a toxic dose or a test without result, not a measured value. Some survivor counts are full or nearly so, which does not show that the dose was tolerated: the source hardly ever lists a survival T/C far under the control, and the zero likely stands for such cases as well. Survivors were counted at the toxicity check, usually on the fifth day, unless a day is given; later deaths do not show. Schedule codes are those of the source, read here as Q, the interval in days (D) or hours (H), X, the number of doses. Some entries hold several experiments; the results are listed from low to high. Where survival is the endpoint, this PubChem deposit counts one and a half times the control or more as active, and values a quarter to a half above the control carry no call in these data; other NCI protocols may use other cut-offs. Brackets with × stand for listed records that agree. Some T/C values carry the count of animals alive at the toxicity check (mostly the fifth day); where none is given, no animal had died by that day.
System: P388 leukemia ip, CD2F1 mice, survival T/C
Test: NCI In Vivo Anticancer Drug Screen. Data for tumor model P388 Leukemia (intraperitoneal) in CD2F1 (CDF1) mice
Conditions: T/C endpoint: median survival time, higher T/C = longer survival
[1] = dose: 120.0 mg/kg/injection, schedule: Q01DX005 (ip), vehicle: saline with Tween-80
[2] = dose: 240.0 mg/kg/injection, schedule: Q01DX005 (ip), vehicle: saline with Tween-80
[3] = dose: 100.0 mg/kg/injection, schedule: Q01DX005 (ip), vehicle: saline with Tween-80
[4] = dose: 200.0 mg/kg/injection, schedule: Q01DX005 (ip), vehicle: saline with Tween-80
[5] = dose: 50.0 mg/kg/injection, schedule: Q01DX005 (ip), vehicle: saline with Tween-80
[6] = dose: 50.0 mg/kg/injection, schedule: Q01DX005 (ip), vehicle: saline
[7] = dose: 200.0 mg/kg/injection, schedule: Q01DX005 (ip), vehicle: Klucel (hydroxypropylcellulose) (HPC)
[8] = dose: 50.0 mg/kg/injection, schedule: Q01DX005 (ip), vehicle: Klucel (hydroxypropylcellulose) (HPC)
[9] = dose: 400.0 mg/kg/injection, schedule: Q01DX005 (ip), vehicle: saline with Tween-80

In the case of `CC(CN(C)C)C(=O)/C=C/c1ccc(Cl)c(Cl)c1` (stereo unspecified), the survivor count [1] is reported as 0 of 6 and the survivor count [2] is reported as 0 of 6.

`O=C(Nc1c(Cl)cccc1Cl)Oc1ccc(Cl)cc1` was tested, and the survivor count [2] was 2 of 6.

In the case of `O=C(CNC1=NCCN1)Nc1ccc(NC(=O)c2ccc(C(=O)Nc3ccc(NC(=O)CNC4=NCCN4)cc3)cc2)cc1`, the T/C [3] is reported as 133 and 138 % of control and the T/C [4] is reported as 144 % of control.

`CC(=O)OCC1OC(S[As](C2CCCCC2)C2CCCCC2)C(OC(C)=O)C(OC(C)=O)C1OC(C)=O` (stereo unspecified) was tested, and the survivor count (dose: 100.0 mg/kg/injection, schedule: Q04DX003 (ip), vehicle: Klucel (hydroxypropylcellulose) (HPC)) was 4 of 6, the survivor count (dose: 200.0 mg/kg/injection, schedule: Q04DX003 (ip), vehicle: Klucel (hydroxypropylcellulose) (HPC)) was 2 of 6 and the survivor count (dose: 400.0 mg/kg/injection, schedule: Q04DX003 (ip), vehicle: Klucel (hydroxypropylcellulose) (HPC)) was 2 of 6.

In the case of `Cc1cccc(N=Nc2c(-c3ccccc3)nn(C(=S)S)c2C)c1C`, the survivor count (dose: 100.0 mg/kg/injection, schedule: Q01DX001 (ip), vehicle: saline with Tween-80) is reported as 5 of 5.

For `CC(=O)OC1CC(C(C)C2CC(C)=C(C)C(=O)O2)C2(C)CCC3C(CC4OC45C(O)C=CC(=O)C35C)C12O` (stereo unspecified), the survivor count (dose: 60.0 mg/kg/injection, schedule: Q01DX005 (ip), vehicle: Klucel (hydroxypropylcellulose) (HPC)) was 0 of 6.

`CC(C)(C)C1=CS(=O)(=O)C(C(C)(C)C)C(O)O1` (stereo unspecified) was tested, and the survivor count (dose: 50.0 mg/kg/injection, schedule: Q01DX009 (ip), vehicle: saline with Tween-80) was 3 of 6 and the survivor count (dose: 100.0 mg/kg/injection, schedule: Q01DX009 (ip), vehicle: saline with Tween-80) was 0 of 6.

In the case of `COc1ccc(C)cc1NC(=O)Sc1ccc(Cl)cc1`, the T/C [3] is reported as 127 % of control, the survivor count (dose: 200.0 mg/kg/injection, schedule: Q01DX005 (ip), vehicle: saline + Tween-80 + alcohol) is reported as 4 of 6 and the survivor count [4] is reported as 6 of 6.

`Ic1ccc(N=Cc2ccc(C=Nc3ccc(I)cc3)cc2)cc1` was tested, and the survivor count (dose: 50.0 mg/kg/injection, schedule: Q01DX009 (ip), vehicle: Klucel (hydroxypropylcellulose) (HPC)) was 6 of 6.

For `O=C(Nc1ccc(C2=NCCN2)cc1)C(=O)Nc1ccc(C2=NCCN2)cc1`, the T/C (dose: 25.0 mg/kg/injection, schedule: Q01DX005 (ip), vehicle: saline with Tween-80) was 133 % of control, the T/C [5] was 128 and 133 % of control and the T/C [3] was 136 % of control [4 of 5 alive]. For the same compound, the survivor count [3] was 1 of 6 and the survivor count [4] was 0 of 6.

With `N=c1ccccn1CCO` the survivor count (dose: 240.0 mg/kg/injection, schedule: Q01DX005 (ip), vehicle: saline) was 3 of 6.

`O=C(NCCCCCCCCCCNC(=O)N1CC1)N1CC1` was tested, and the T/C (dose: 1.0 mg/kg/injection, schedule: Q04DX003 (ip), vehicle: saline with Tween-80) was 129 % of control, the T/C (dose: 1.56 mg/kg/injection, schedule: Q04DX003 (ip), vehicle: saline with Tween-80) was 138 % of control and the T/C (dose: 3.13 mg/kg/injection, schedule: Q01DX009 (ip), vehicle: saline with Tween-80) was 125 % of control. For the same compound, the T/C (dose: 6.25 mg/kg/injection, schedule: Q04DX003 (ip), vehicle: saline with Tween-80) was 133 % of control, the survivor count (dose: 12.5 mg/kg/injection, schedule: Q04DX003 (ip), vehicle: saline with Tween-80) was 6 of 6 and the survivor count (dose: 25.0 mg/kg/injection, schedule: Q04DX003 (ip), vehicle: saline with Tween-80) was 3 of 6.

In the case of `COc1cccc2c1C(CO)N1C(C#N)C3CC(C(=O)O)C(C1C2)N3C` (stereo unspecified), the T/C (dose: 1.57 mg/kg/injection, schedule: Q01DX005 (ip), vehicle: suspension in saline) is reported as 132 % of control, the T/C (dose: 3.12 mg/kg/injection, schedule: Q01DX005 (ip), vehicle: suspension in saline, evaluated on day 19) is reported as 148 % of control and the T/C (dose: 3.12 mg/kg/injection, schedule: Q01DX005 (ip), vehicle: suspension in saline, evaluated on day 30) is reported as 132 % of control. The T/C (dose: 3.13 mg/kg/injection, schedule: Q01DX005 (ip), vehicle: suspension in saline) was 131 % of control, the T/C (dose: 6.25 mg/kg/injection, schedule: Q01DX005 (ip), vehicle: suspension in saline) was 148 % of control and the survivor count (dose: 25.0 mg/kg/injection, schedule: Q01DX005 (ip), vehicle: suspension in saline) was 5 of 6. The survivor count [6] was 6 of 6 and the survivor count (dose: 50.0 mg/kg/injection, schedule: Q01DX005 (ip), vehicle: suspension in saline) was 1 of 6 and 6 of 6.

`C/C=C(\C)C(=O)O[C@@H]1[C@H]2C(C)=CC(=O)[C@@H](O)[C@]2(C)[C@H]2[C@@]3(O)OC[C@@]24[C@@H]1OC(=O)C[C@H]4[C@@H](C)[C@H]3O` was tested, and the T/C (dose: 0.08 mg/kg/injection, schedule: Q01DX009 (ip), vehicle: other) was 134 % of control, the T/C (dose: 0.15 mg/kg/injection, schedule: Q01DX009 (ip), vehicle: other) was 134 % of control and the T/C (dose: 0.3 mg/kg/injection, schedule: Q01DX009 (ip), vehicle: other) was 142 % of control. For the same compound, the T/C (dose: 0.5 mg/kg/injection, schedule: Q01DX009 (ip), vehicle: other) was 130 % of control, the T/C (dose: 1.0 mg/kg/injection, schedule: Q01DX009 (ip), vehicle: other) was 130 % of control and the T/C (dose: 1.2 mg/kg/injection, schedule: Q01DX009 (ip), vehicle: other) was 137 % of control.

`CN1c2ccccc2SC2C(c3ccccc3)=NOC21` (stereo unspecified) was tested, and the survivor count (dose: 15.0 mg/kg/injection, schedule: Q01DX005 (ip), vehicle: saline with Tween-80) was 6 of 6, the survivor count (dose: 60.0 mg/kg/injection, schedule: Q01DX005 (ip), vehicle: saline with Tween-80) was 6 of 6 and the survivor count [1] was 6 of 6.

`CC(=O)/C(C(=N)c1nc(C)c(C(C)=O)c(C(N)=O)n1)=C(\C)O` was tested, and the survivor count [7] was 6 of 6.

For `COc1ccc(C(C#N)N2CCCC2)cc1` (stereo unspecified), the survivor count (dose: 25.0 mg/kg/injection, schedule: Q04DX003 (ip), vehicle: other) was 4 of 6.

For `COc1cc2c(cc1OC)-c1c(C)c3ccc(OC)c(NCCN)c3c[n+]1CC2`, the survivor count (dose: 50.0 mg/kg/injection, schedule: Q04DX003 (ip), vehicle: water) was 0 of 6 and 3 of 6, the survivor count (dose: 100.0 mg/kg/injection, schedule: Q04DX003 (ip), vehicle: water) was 0 of 6 and the survivor count (dose: 200.0 mg/kg/injection, schedule: Q04DX003 (ip), vehicle: water) was 0 of 6. For the same compound, the survivor count (dose: 400.0 mg/kg/injection, schedule: Q04DX003 (ip), vehicle: water) was 0 of 6.

With `CSC(=S)N/N=C(\C)c1ccccc1` the survivor count (dose: 12.5 mg/kg/injection, schedule: Q01DX009 (ip), vehicle: saline) was 6 of 6, the survivor count (dose: 25.0 mg/kg/injection, schedule: Q01DX009 (ip), vehicle: saline) was 6 of 6 and the survivor count (dose: 50.0 mg/kg/injection, schedule: Q01DX009 (ip), vehicle: saline) was 6 of 6.

For `Cn1c2ccccc2c2cc3c(cc21)C(=O)OC3=O`, the survivor count (dose: 25.0 mg/kg/injection, schedule: Q01DX005 (ip), vehicle: Klucel (hydroxypropylcellulose) (HPC)) was 5 of 5, the survivor count [8] was 5 of 5 and the survivor count [7] was 3 of 5.

For `Cc1cc([N+](=O)[O-])c(Cl)cc1NS(=O)(=O)c1ccccc1`, the survivor count (dose: 200.0 mg/kg/injection, schedule: Q04DX003 (ip), vehicle: saline with Tween-80) was 5 of 6.

`O=C1c2ccccc2C(Cl)(c2ccc(Cl)cc2)c2ccc(Cl)cc21` (stereo unspecified) was tested, and the T/C [5] was 106, 118 (2×), 121 % of control, the T/C [3] was 121, 122, 131, 138 % of control and the T/C [4] was 124, 126, 135 % of control. For the same compound, the survivor count [4] was 5 of 6, the T/C [9] was 130 % of control and the survivor count [9] was 1 of 6. The survivor count (dose: 800.0 mg/kg/injection, schedule: Q01DX005 (ip), vehicle: saline with Tween-80) was 0 of 6.

In the case of `CC1=C[P+](c2ccccc2)(c2ccccc2)C=C(C)O1`, the survivor count (dose: 12.5 mg/kg/injection, schedule: Q01DX005 (ip), vehicle: saline) is reported as 2 of 5, the survivor count (dose: 25.0 mg/kg/injection, schedule: Q01DX005 (ip), vehicle: saline) is reported as 0 of 5 and the survivor count [6] is reported as 0 of 5.

In the case of `CN1C(N)=NC(c2ccccc2)=CC1(C)c1ccccc1` (stereo unspecified), the survivor count [8] is reported as 0 of 5, the survivor count (dose: 100.0 mg/kg/injection, schedule: Q01DX005 (ip), vehicle: Klucel (hydroxypropylcellulose) (HPC)) is reported as 0 of 5 and the survivor count [7] is reported as 0 of 5.

— PubChem BioAssay AID330 (DTP/NCI, 2004)
